Measured values taken from patent US11633379B2, “Methods of inhibiting PCSK9” (TRUSTEES OF DARTMOUTH COLLEGE, priority 2017, dated 2023).

Test: Plasma total cholesterol in mice
Assay type: in vivo

With `CC(=O)Oc1ccc(C2CC3(CCCCC3)c3c2[nH]c2ccccc32)cc1` (centres unmarked) [Compound 34] as the compound, how does the “plasma cholesterol (mostly HDL)” value (5-day oral 100 mg/kg/day, FIG. 13A) read?
Its value is “no significant changes”.

What about the “plasma cholesterol (mostly HDL)” value (single oral 100 mg/kg, FIG. 11A) of the same compound?
The value was “not affected”.
